Earlier results in patent publication US20220304955A1 (Nacuity Pharmaceuticals, Inc., priority 2021, published 2022).
At least one read-out could not be matched to a standard name with certainty.

Conditions: in vivo; cited from earlier work

Compound: CC(=O)N[C@@H](CS)C(N)=O
- bioavailability compared to NAC: yields nearly double [NAC] compared to NAC alone
